Experimental data published in publication doi:10.1101/2020.04.03.023895.
Results are given in words; binding and its absence hold for the method and conditions named. In cells and extracts the contact can be indirect. Binding can be weak; no strength is given.

Amino acid sequences for entries named in this document (tags omitted). A change or cut given only in a name is not applied to a line headed by its entry. Residues count along the entry.
UniProt Q9VVL6: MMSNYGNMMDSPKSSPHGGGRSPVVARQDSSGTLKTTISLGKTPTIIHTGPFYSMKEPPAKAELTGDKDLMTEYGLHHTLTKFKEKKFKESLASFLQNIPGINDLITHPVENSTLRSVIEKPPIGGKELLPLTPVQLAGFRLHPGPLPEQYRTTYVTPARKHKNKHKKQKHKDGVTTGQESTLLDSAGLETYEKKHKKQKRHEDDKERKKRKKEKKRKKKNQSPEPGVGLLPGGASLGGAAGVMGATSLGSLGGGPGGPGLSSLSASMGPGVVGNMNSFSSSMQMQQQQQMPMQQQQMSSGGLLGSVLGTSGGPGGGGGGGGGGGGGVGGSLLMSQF
UniProt P52168, residues 1-291: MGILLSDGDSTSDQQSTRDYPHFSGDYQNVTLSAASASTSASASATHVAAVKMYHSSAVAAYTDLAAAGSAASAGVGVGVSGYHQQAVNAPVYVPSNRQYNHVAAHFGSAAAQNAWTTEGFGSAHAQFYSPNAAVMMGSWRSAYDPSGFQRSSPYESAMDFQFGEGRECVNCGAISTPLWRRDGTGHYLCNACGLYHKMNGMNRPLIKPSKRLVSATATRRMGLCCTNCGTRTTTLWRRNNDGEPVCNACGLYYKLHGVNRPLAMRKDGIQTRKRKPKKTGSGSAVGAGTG

Biological target: GST-Med19 ΔCORE (Drosophila) (UniProt Q9VVL6)
Assay: pull-down

Pnr 1-291 HA tagged form (from UniProt P52168 1-291) (domain or fragment)
binding: binds
